Data as given in publication doi:10.1101/2023.04.22.537891.
The exact form of at least one protein or probe is not confirmed. At least one verdict rests on a figure or table, not on a statement of the authors.

What was measured:
[1] = test system: TaNAM-A1c (Triticum aestivum); assay: EMSA
[2] = test system: TaNAM-A1d (Triticum aestivum (178A allele)); assay: EMSA

“AAGGATGGCCGGCACTTACGCAACCTGTCCTTAGACCCCCACAGAAC (double strand) [proTaPAO-4B EMSA probe (PAOsite2)]”: binds [1]; binds [2].

“GATTCCTAATGGGCCGGCGTACGCAACTGGTTTGTTACCGCGTGTCG (double strand) [proTaIDS3-7A EMSA probe (IDS3site2)]”: binds [1]; binds [2].

“TTTCAACAAGTGGTTACATACGGAACAAAATGAGTGAATCTACACT (double strand) [proTaHMA2like-7A EMSA probe (HMA2site2)]”: binds [1]; binds [2].
